Patent publication US20250122303A1, “TREATMENT AND PREVENTION OF CANCER USING HER3 ANTIGEN-BINDING MOLECULES” (Hummingbird Bioscience Pte. Ltd., priority 2021, published 2025)
These are yes or no findings as the source states them, for the method shown. Some results given as binding are weak or reduced against the parent protein; the word gives no strength. Each block holds one binder with its values, some of them ahead of it.

Sequences of proteins named here, by UniProt entry; tags and fusion partners are left off. A change or cut given only in a name is not applied to a line headed by its entry. A line that says so, or that is headed by a name, gives the form on record, which may keep a tag or linker. Residues count along the entry.
cynomolgus macaque HER3 (G7PIG5, form named): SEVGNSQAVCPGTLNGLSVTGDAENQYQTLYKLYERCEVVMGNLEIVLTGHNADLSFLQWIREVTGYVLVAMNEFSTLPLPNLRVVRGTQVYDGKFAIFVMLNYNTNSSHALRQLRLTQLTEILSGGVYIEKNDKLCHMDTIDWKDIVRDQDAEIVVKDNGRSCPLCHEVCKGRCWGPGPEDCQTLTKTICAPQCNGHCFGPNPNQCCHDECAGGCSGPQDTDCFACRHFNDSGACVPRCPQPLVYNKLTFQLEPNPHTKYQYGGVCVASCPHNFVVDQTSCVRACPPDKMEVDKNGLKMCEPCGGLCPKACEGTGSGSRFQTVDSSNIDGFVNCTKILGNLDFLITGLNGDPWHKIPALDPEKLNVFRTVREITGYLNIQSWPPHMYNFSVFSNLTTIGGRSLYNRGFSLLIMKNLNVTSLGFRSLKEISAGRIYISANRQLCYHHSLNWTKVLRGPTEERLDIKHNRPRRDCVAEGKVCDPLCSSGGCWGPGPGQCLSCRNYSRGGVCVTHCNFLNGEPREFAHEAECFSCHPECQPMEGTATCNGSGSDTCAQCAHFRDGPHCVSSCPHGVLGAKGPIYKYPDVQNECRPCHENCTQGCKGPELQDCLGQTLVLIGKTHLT
UniProt Q61526, residues 20-641: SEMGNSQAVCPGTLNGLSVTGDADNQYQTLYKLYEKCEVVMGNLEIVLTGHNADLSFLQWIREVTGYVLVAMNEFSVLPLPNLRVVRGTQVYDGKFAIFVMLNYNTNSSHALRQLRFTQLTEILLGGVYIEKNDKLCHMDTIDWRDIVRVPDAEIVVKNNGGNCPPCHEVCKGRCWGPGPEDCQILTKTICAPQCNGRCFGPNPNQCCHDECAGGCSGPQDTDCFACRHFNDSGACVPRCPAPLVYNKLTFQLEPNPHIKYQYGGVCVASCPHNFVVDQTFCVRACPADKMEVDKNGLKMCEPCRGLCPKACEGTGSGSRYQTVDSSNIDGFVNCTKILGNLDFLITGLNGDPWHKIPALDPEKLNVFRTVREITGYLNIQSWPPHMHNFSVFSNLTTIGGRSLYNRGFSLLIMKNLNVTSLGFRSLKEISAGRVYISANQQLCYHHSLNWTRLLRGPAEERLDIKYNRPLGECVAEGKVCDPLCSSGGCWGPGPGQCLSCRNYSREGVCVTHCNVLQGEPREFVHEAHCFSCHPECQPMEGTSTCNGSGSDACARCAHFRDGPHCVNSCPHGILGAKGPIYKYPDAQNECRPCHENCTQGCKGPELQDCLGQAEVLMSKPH
UniProt Q62799, residues 20-641: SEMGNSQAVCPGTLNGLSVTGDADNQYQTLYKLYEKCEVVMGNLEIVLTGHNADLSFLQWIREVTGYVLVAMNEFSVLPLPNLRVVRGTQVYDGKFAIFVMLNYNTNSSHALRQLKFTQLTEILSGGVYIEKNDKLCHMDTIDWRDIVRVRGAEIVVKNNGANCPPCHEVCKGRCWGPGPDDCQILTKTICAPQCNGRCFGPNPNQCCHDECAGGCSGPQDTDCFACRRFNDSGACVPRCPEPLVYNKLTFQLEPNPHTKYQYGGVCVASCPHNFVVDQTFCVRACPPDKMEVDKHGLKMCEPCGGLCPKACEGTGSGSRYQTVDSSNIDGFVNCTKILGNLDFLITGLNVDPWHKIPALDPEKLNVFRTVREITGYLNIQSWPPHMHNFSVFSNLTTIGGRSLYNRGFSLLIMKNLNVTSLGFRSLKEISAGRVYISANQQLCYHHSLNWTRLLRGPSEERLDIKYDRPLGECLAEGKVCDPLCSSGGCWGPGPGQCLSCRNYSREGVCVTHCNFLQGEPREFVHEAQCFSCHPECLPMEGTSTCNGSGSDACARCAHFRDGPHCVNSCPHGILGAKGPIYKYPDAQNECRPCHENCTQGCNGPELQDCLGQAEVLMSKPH
UniProt P21860, residues 20-643: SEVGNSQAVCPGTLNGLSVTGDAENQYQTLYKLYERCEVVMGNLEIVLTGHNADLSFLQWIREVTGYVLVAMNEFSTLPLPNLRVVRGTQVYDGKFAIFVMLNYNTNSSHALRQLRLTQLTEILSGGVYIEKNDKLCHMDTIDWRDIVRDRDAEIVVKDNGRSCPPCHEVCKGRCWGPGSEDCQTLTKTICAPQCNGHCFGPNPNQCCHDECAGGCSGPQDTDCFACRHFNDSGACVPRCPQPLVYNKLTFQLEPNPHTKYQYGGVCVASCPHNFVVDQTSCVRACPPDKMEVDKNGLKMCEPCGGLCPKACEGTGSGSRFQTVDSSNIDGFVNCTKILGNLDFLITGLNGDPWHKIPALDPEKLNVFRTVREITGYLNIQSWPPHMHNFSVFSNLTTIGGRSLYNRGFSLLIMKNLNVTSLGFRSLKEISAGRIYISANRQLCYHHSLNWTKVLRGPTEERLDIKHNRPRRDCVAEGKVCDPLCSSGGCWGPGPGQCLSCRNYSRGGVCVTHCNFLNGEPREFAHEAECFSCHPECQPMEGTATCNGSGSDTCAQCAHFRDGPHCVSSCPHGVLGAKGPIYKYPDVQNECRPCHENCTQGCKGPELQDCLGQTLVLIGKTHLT

Legend:
[1] = biological target: cynomolgus macaque HER3 (cynomolgus macaque) (UniProt G7PIG5); experiment: ELISA, plate coated with 0.1 µg/ml target, antibody titrated from 10 µg/ml
[2] = biological target: cynomolgus macaque HER3 (cynomolgus macaque) (UniProt G7PIG5); experiment: ELISA, plate coated with 0.1 ug/ml cynomolgus HER3, antibody titrated, absorbance 450 nm
human EGFR (human) [3] = biological target: human EGFR (human) (UniProt P00533); experiment: ELISA, plate coated with 0.1 µg/ml target, antibody titrated from 10 µg/ml
human HER2 (human) [4] = biological target: human HER2 (human) (UniProt P04626); experiment: as above
mouse HER3 (mouse) [5] = biological target: mouse HER3 (mouse) (UniProt Q61526); experiment: as above
rat HER3 (rat) [6] = biological target: rat HER3 (rat) (UniProt Q62799); experiment: as above
[7] = biological target: human HER3 expressed on cells (HEK293 HER3 O/E cells) (human) (UniProt P21860); experiment: flow cytometry on HEK293 cells overexpressing human HER3, 20 µg/ml antibody
rat HER3 (rat) [8] = biological target: rat HER3 (rat) (UniProt Q62799); experiment: ELISA, plate coated with 0.1 ug/ml rat HER3, antibody titrated, absorbance 450 nm
human EGFR (human) [9] = biological target: human EGFR (human) (UniProt P00533); experiment: ELISA, plate coated with 0.1 ug/ml human EGFR, antibody titrated, absorbance 450 nm
human HER2 (human) [10] = biological target: human HER2 (human) (UniProt P04626); experiment: ELISA, plate coated with 0.1 ug/ml human HER2, antibody titrated, absorbance 450 nm
[11] = biological target: human HER3 polypeptide (human) (UniProt P21860); experiment: ELISA, plate coated with 0.1 ug/ml human HER3, antibody titrated, absorbance 450 nm
mouse HER3 (mouse) [12] = biological target: mouse HER3 (mouse) (UniProt Q61526); experiment: ELISA, plate coated with 0.1 ug/ml mouse HER3, antibody titrated, absorbance 450 nm
[13] = biological target: His-tagged human HER3 (human) (UniProt P21860); experiment: BLI (Octet QK384), antibody on anti-human IgG capture tips, His-tagged human HER3 in solution
[14] = biological target: human HER3 expressed on cells (HEK293 HER3 O/E cells) (human) (UniProt P21860); experiment: flow cytometry, HEK293 cells overexpressing human HER3, 20 ug/ml antibody, FITC anti-Fc secondary

- binding [1]: binds
- binding [2]: binds
B1: anti-HER3 clone 4-35-B2 IgG1 (antibody, V domains shown)
VH: EIQLQQSGPELVKPGASVKVSCKASGYSFTDYNMYWVKQSHGKSLEWIGHINPYNGGTTYNQKFKGRATLTVDKSSSTAFMHLNSLTSEDSAVYFCVSLRWGAMDYWGQGTSVTVSS
VL: QIVLTQSPALMSASPGEKVTMTCSASSSVSYMYWYQQKPRSSPKPWIYLTSNLASGVPARFSGSGSGTSYSLTISSMEAEDAATYYCQQWNSNPYTFGGGTKLEIKR

- binding [1]: binds
- binding (human EGFR (human) [3]): binds
- binding (human HER2 (human) [4]): binds
- binding (mouse HER3 (mouse) [5]): binds
- binding (rat HER3 (rat) [6]): binds
- binding [7]: binds
- binding (rat HER3 (rat) [8]): binds
- binding (human EGFR (human) [9]): binds
- binding (human HER2 (human) [10]): binds
- binding [11]: binds
- binding (mouse HER3 (mouse) [12]): binds
- binding [2]: binds
- binding [13]: binds
- binding [14]: binds
B2: anti-HER3 clone 4-35-B4 IgG1 (antibody, V domains shown)
VH: EVQLQQSGAELVKPGASVKLSCTASGFNIKDTYIHWVKQRPDQGLEWIGKIIDPANGNTNYDPKFQGKATITADTSSNTAYLQLSSLSSEDTAVYFCARGLHWGQGTTLTVSS
VL: DIVLTQSPASLAVSLGQRATISCRASKSVSTSGYSYMHWYQQKPGQPPKLLIYLASNLESGVPARFSGSGSGTDFTLNIHPVEEEDAATYYCQHSRELPYTFGGGTKLEIKR
